In patent US4910203A, “Pteridine compounds” (priority 1984, dated 1990):

System: male Wistar rats
Conditions: furosemide 8.27 mg/kg i.v. alone, 1.5 hours, mean
Protocol: They were orally given 20 ml/kg of an 0.9% NaCl solution just before the test substance was administered intravenously. […] Injection was into the caudal vein under light ether anasthesia. As a rule six test animals were used per test. The animals were individually placed into diuresis cages and the urine was collected after 1.5 hours. Analysis was performed as for the determination of potency given above. IA stands for 2,4,7-triamino-6-[4-(2-hydroxy-3-dimethylaminopropoxy)phenyl]-pteridine.

NS(=O)(=O)c1cc(C(=O)O)c(NCc2ccco2)cc1Cl [Furosemide, 4-chloro-N-furfuryl-5-sulfamoylanthranilic acid]
Ca^2+ excretion (control 0.07): 0.13 mmol/kg
Mg^2+ excretion (control 0.08): 0.11 mmol/kg
K^+ excretion (control 0.33): 0.68 mmol/kg
Na^+ excretion (control 0.61): 6.77 mmol/kg
